Laboratory results taken from PubChem BioAssay AID1347075 (National Center for Advancing Translational Sciences (NCATS), 2019).
Values joined by “and” are separate entries in the source; they are usually repeats but may differ in a detail not shown here. Identical values can stand only once. The whole screen tested about 400,000 compounds, of which about 5,500 (1.4%) were called active. The shares of active, inactive and inconclusive entries below differ from those in the screen. Calls follow the shape of the dose curve; as a rule, active = well fitted cell-killing curve with a large enough effect; inconclusive = small, poorly fitted or top-dose-only effect, or effect the other way; inactive = flat fitted curve, though single readings scatter. Potencies beside an inconclusive call are fits to weak or partial responses and may not hold up.

assay: qHTS assay for MDR1-selective chemotherapeutics: Primary screen using the parental adenocarcinoma cell KB-3-1; conditions: KB-3-1 viability, CellTiter-Glo ATP luminescence, 72 h; activity change, negative = cytotoxic: at 46.1 µM (top of the series); also: nearly all actives have a fitted effect of over 60% in size
Procedure, shortened: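 Here the drug-naive KB-3-1 line serves as comparator for MDR sub-line selectivity; cells received compound titrations, 72 h at 37 °C, then CellTiter-Glo readout.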
% is scaled to controls: 0 for no effect and ±100 for the full control effect; potency is read from the fitted curve at half-maximal effect.

Question: Which activity change, negative = cytotoxic does the source give for COc1ccc(NC2=NCCCS2)cc1OC here?
Answer: inconclusive: 0.329%

Question: With O=C(c1cc(C(=O)NCc2ccccc2)c(=O)n(Cc2ccccc2)c1)c1cc(Br)ccc1O as the compound, how does the Potency read?
Answer: inconclusive: 29.1 µM [cytotoxic, single point]

Question: For COc1ccc(CN2CCCC(C(=O)c3sccc3C)C2)cc1O (configuration not stated), which Potency is on record?
Answer: inconclusive: 29.1 µM [cytotoxic, single point]

Question: With O=C1NC(=S)NC(=O)C1=Cc1cccn1-c1ccc(O)cc1 as the compound, how does the Potency read?
Answer: inconclusive: 20.6 µM [cytotoxic, partial curve, poor fit]

Question: Which Potency does the source give for COc1ccc(OC)c(N2C(=O)NC(=O)C3(Cc4cc(C)ccc4N(C)C3)C2=O)c1 (configuration not stated) here?
Answer: inactive

Question: With COc1ccc(-c2ccc(OC)c(OC)c2OC)cc1 as the compound, how does the Potency read?
Answer: inconclusive: 29.1 µM [cytotoxic, single point]

Question: With COc1ccc2[nH]c(C)c(CCNCc3cn(C)c4ccccc34)c2c1 as the compound, how does the Potency read?
Answer: inconclusive: 20.6 µM [cytotoxic, single point]

Question: Which Potency does the source give for Cc1ccc(-n2c(/C=C\c3ccc(F)c(F)c3)nc3ccccc3c2=O)c(C)c1 here?
Answer: active: 2.91 µM

Question: Which Potency does the source give for CC(=O)OC12COC1CC(O)C1(C)C(=O)C(O)C3=C(C)C(O)CC(O)(C(OC(=O)c4ccccc4)C21)C3(C)C (configuration not stated) here?
Answer: active: 0.517 µM

Question: With Oc1ccc2c3c1OC1c4[nH]c5ccccc5c4C[C@@]4(O)C(C2)N(CC2CC2)CC[C@]314 (some centres not stated) as the compound, how does the Potency read?
Answer: inactive

Question: For COc1cc2c(c(OC)c1OC)-c1ccc(O)cc1C(NC(C)=O)CC2 (configuration not stated), which Potency is on record?
Answer: inconclusive: 0.0052 µM [cytotoxic, full curve, poor fit]

Question: Which Potency does the source give for O=Cc1cn(Cc2ccc(Br)cc2)c2ccccc12 here?
Answer: active: 10.3 µM

Question: With CC(=O)OC1CC(OC2C(O)CC(OC3C(O)CC(OC4CCC5(C)C(CCC6C5CC(O)C5(C)C(C7=CC(=O)OC7)CCC65O)C4)OC3C)OC2C)OC(C)C1OC1OC(CO)C(O)C(O)C1O (configuration not stated) as the compound, how does the Potency read?
Answer: inconclusive: 41.1 nM [cytotoxic, full curve, poor fit] and inconclusive: 206 nM [cytotoxic, full curve, poor fit]

Question: For COC(=O)C1=C(c2ccc(F)cc2OCc2ccccc2)C[C@@H]2CC[C@H]1N2C(=O)NCc1ccccc1Cl, which Potency is on record?
Answer: inactive

Question: With Brc1ccc(CN2CCNCC2)s1 as the compound, how does the Potency read?
Answer: inconclusive: 18.4 µM [cytotoxic, single point]

Question: Which Potency does the source give for CCC(=NCCCN(CC)CC)c1c(O)n(-c2ccccc2)c(=O)[nH]c1=O here?
Answer: inactive

Question: With Cc1nc2c(=O)n(C)c(=O)nc-2n(C)n1 as the compound, how does the Potency read?
Answer: active: 5.17 µM

Question: For CC1CCN(CC(=O)c2cccc(C(F)(F)F)c2)CC1, which Potency is on record?
Answer: inactive

Question: For CC(=O)OC1CC[C@]2(C#N)[C@H]3CC[C@]4(C)[C@H](C5C=CC(=O)O5)CCC4(O)C3CCC2(O)C1 (some centres not stated), which Potency is on record?
Answer: inconclusive: 18.4 µM [cytotoxic, single point]

Question: Which Potency does the source give for COc1cccc(-c2sc3ccccc3c2-c2ccc(OCCN3CCOCC3)cc2)c1 here?
Answer: inconclusive: 20.6 µM [cytotoxic, single point]

Question: Which Potency does the source give for CC(=NCCC1=CCCCC1)c1c(O)[nH]c(=O)[nH]c1=O here?
Answer: inconclusive: 29.1 µM [cytotoxic, single point]

Question: For O=c1[nH]c(=S)n(-c2ccccc2)c(O)c1/C=N/N1CCCCC1c1cccnc1 (configuration not stated), which Potency is on record?
Answer: inconclusive: 16.4 µM [rising, single point]

Question: For O=C1NC(=O)N(CCc2ccc(F)cc2)C(=O)/C1=C/c1cccs1, which Potency is on record?
Answer: inactive

Question: Which Potency does the source give for CC(C)c1oc(=O)cc2c1[C@@H](O)[C@H]1OC(=O)[C@@]3(C)C[C@@H](O)[C@@H](O)[C@@]2(C)C13 (some centres not stated) here?
Answer: active: 8.2 µM

Question: For COc1ccc2c(c1)[nH]c1c(C)nccc12, which Potency is on record?
Answer: inconclusive: 0.651 µM [cytotoxic, full curve]

Question: With CCCCn1c(N)c(C(=O)NCc2cccs2)c2nc3ccccc3nc21 as the compound, how does the Potency read?
Answer: inconclusive: 16.4 µM [cytotoxic, single point]

Question: With COc1ccc2c(c1)/C(=C/c1cnc[nH]1)C(=O)N2 as the compound, how does the Potency read?
Answer: inconclusive: 29.1 µM [cytotoxic, single point]

Question: Which Potency does the source give for Cc1cc(C)nc(N2Cc3ccccc3C2=N)n1 here?
Answer: inconclusive: 29.1 µM [cytotoxic, single point]

Question: With COc1ccc(-n2nnnc2C(c2ccccc2OC(F)(F)F)N2CCC3(CC2)C(=O)NCN3c2ccccc2)cc1 (configuration not stated) as the compound, how does the Potency read?
Answer: inconclusive: 29.1 µM [cytotoxic, single point]

Question: With COc1ccc(NC(=O)C2C3CCC(O3)C2C(=O)O)c(OC)c1 (configuration not stated) as the compound, how does the Potency read?
Answer: inconclusive: 29.1 µM [cytotoxic, single point]

Question: For COc1ccc(C[C@H]2NC[C@H](O)[C@H]2OC(C)=O)cc1, which Potency is on record?
Answer: active: 0.326 µM

Question: Which Potency does the source give for O=C(C1CC(c2ccc(Cl)c(Cl)c2)=NO1)N1CCC2(CC1)OCCO2 (configuration not stated) here?
Answer: inactive

Question: For O=C1NC(=S)NC(=O)C1Cc1ccccc1O, which Potency is on record?
Answer: inactive

Question: For CCN(CC)P(=O)(Oc1ccccc1)Oc1ccccc1, which Potency is on record?
Answer: inactive

Question: With CCC(C)C1NC(=O)C2CCCN2C(=O)C(CC(C)C)OC(=O)CCNC(=O)C(C)N(C)C(=O)C(C(C)C)N(C)C1=O (configuration not stated) as the compound, how does the Potency read?
Answer: active: 4.61 µM

Question: Which Potency does the source give for CCN(CC)C(=O)c1ccc(NC(=O)COc2ccc(-c3nn(C)c(=O)c4ccccc34)cc2)cc1 here?
Answer: inconclusive: 29.1 µM [cytotoxic, single point]

Question: Which Potency does the source give for C=CCCC1(C(C)C)C(=O)NC(=S)NC1=O here?
Answer: inactive

Question: Which Potency does the source give for Cc1ccc(-c2nc3c(=O)n(C)c(=O)nc-3n(C)n2)cc1 here?
Answer: active: 2.59 µM

Question: With CCC(=O)[C@@H](C)[C@@H](O)[C@H](C)C[C@@H](C)C1OC(=O)C[C@@]2(O)CC=C(C)C(O2)C(C)=CCCC[C@H](O[C@H]2C[C@@H](OC(N)=O)[C@H](O)[C@@H](C)O2)C=C[C@H](C)C[C@H]1C (some centres not stated) as the compound, how does the Potency read?
Answer: active: 0.651 µM

Question: With COc1ccc2c3c1OC1C(=O)CC[C@@]4(O)[C@@H](C2)N(C)CC[C@]314 (some centres not stated) as the compound, how does the Potency read?
Answer: inconclusive: 29.1 µM [cytotoxic, single point]

Question: For CCCC[C@@H](C)C[C@@H](C)C(=O)N(C)[C@@H](CC(C)C)C(=O)N[C@H](C(=O)N(C)[C@H](C(=O)N1C[C@@H](O)C[C@H]1C(=O)N1C(=O)C=C[C@@H]1C)C(C)C)C(C)OC(C)=O (some centres not stated), which Potency is on record?
Answer: inactive

Question: Which Potency does the source give for O=C1NC(=O)C(=Cc2ccccc2OCCOc2ccc([N+](=O)[O-])cc2)C(=O)N1 here?
Answer: inactive
